Test results as given in publication PMC6127284.
No constants are given. Whether binding was seen depends on the method and setting. For some of these results: Binding seen in cells or lysates may run through a third protein. Some binding calls cover weakened binding; strength is not graded here. For some of these results: Where a sequence is shown, tags or fusion partners need not be part of it.

Amino acid sequences for entries named in this document (tags omitted). Residues count along the entry.
UniProt Q01097, residues 27-1482: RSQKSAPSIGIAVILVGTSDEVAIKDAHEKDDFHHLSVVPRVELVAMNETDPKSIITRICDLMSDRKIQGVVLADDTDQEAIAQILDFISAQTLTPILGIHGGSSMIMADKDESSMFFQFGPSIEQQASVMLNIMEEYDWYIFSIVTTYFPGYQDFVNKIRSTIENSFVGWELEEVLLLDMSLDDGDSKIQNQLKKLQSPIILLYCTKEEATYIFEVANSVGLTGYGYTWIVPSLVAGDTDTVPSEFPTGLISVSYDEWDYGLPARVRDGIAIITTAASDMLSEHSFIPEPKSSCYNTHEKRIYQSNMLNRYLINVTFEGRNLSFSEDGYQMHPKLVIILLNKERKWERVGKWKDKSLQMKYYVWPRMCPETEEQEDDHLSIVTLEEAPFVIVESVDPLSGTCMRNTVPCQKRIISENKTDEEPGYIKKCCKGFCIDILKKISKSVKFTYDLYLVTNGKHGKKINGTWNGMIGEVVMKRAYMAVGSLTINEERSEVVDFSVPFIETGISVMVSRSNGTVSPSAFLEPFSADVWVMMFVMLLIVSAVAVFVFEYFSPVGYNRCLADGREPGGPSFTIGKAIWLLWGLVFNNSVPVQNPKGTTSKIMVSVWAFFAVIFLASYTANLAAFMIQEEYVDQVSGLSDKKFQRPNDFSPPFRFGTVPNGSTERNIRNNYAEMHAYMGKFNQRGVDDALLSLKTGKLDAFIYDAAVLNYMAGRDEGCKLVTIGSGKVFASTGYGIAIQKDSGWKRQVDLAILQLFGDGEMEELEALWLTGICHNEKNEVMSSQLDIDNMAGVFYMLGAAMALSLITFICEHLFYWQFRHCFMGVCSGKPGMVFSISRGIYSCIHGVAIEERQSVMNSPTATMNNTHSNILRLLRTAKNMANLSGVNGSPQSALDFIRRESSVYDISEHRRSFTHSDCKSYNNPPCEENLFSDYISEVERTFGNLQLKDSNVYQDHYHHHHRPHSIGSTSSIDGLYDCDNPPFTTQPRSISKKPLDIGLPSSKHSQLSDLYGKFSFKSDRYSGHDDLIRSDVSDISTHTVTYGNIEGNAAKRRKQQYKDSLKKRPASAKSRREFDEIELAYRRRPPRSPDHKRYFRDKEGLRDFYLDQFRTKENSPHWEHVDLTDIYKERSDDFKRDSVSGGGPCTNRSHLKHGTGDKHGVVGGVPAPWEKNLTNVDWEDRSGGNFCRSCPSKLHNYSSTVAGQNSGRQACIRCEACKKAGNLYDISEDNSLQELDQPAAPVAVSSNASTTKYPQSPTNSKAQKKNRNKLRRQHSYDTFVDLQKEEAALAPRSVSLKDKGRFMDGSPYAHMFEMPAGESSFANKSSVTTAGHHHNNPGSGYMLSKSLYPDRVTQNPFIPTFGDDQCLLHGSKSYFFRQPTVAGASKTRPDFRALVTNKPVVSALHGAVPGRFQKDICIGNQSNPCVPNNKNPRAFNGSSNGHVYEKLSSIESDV

Key:
[1] = target: T1, Trak1 (mouse (endogenous in adult mouse brain)) (UniProt Q6PD31); assay: co-IP; Trak1 immunoprecipitated from adult mouse brain synaptosome and light membrane fractions; endogenous proteins
T1 sequence: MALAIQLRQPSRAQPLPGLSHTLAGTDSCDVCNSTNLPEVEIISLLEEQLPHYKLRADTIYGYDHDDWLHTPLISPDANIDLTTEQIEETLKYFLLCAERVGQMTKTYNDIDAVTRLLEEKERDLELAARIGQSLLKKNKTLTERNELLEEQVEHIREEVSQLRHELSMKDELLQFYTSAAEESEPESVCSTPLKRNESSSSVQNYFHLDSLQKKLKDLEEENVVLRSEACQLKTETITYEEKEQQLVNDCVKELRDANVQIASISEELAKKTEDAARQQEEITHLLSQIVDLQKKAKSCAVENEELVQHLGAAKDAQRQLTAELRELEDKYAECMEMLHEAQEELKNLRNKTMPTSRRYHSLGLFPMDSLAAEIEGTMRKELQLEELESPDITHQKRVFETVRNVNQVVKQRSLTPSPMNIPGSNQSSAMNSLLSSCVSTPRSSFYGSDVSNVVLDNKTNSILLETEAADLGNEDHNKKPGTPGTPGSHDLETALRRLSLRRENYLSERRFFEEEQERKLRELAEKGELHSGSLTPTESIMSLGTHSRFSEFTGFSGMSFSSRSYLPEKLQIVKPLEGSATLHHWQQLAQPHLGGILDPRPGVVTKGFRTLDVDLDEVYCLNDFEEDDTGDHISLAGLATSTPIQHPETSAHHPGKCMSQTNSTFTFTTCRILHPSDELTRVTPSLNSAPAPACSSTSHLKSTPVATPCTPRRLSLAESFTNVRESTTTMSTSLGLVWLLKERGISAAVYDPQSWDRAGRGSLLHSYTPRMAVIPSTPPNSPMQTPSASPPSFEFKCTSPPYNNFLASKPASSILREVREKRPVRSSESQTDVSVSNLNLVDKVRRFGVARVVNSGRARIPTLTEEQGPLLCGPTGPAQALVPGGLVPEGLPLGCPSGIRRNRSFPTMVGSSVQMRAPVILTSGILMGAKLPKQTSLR

[2] = target: GluN1 cytoplasmic tail (C0-C1-C2) peptide array, peptide spots 1–16 (amino acids 831–930) (UniProt Q05586); assay: peptide or protein array; peptide array of the GluN1 cytoplasmic tail (C0-C1-C2), each spot a single peptide, probed with FLAG-DISC1
HA-tagged GluN1 = HA-tagged GluN1 (UniProt Q05586); assay: co-IP; tagged proteins co-expressed in transfected COS7 cells, immunoprecipitated from cell lysates

| Molecule | binding [1] | binding [2] | binding (HA-tagged GluN1) |
| --- | --- | --- | --- |
| GluN2B (from UniProt Q01097 27-1482) (receptor) | binds |  |  |
| FLAG-DISC1 (protein, UniProt Q9NRI5 1-854) MPGGGPQGAPAAAGGGGVSHRAGSRDCLPPAACFRRRRLARRPGYMRSSTGPGIGFLSPAVGTLFRFPGGVSGEESHHSESRARQCGLDSRGLLVRSPVSKSAAAPTVTSVRGTSAHFGIQLRGGTRLPDRLSWPCGPGSAGWQQEFAAMDSSETLDASWEAACSDGARRVRAAGSLPSAELSSNSCSPGCGPEVPPTPPGSHSAFTSSFSFIRLSLGSAGERGEAEGCPPSREAESHCQSPQEMGAKAASLDGPHEDPRCLSRPFSLLATRVSADLAQAARNSSRPERDMHSLPDMDPGSSSSLDPSLAGCGGDGSSGSGDAHSWDTLLRKWEPVLRDCLLRNRRQMEVISLRLKLQKLQEDAVENDDYDKAETLQQRLEDLEQEKISLHFQLPSRQPALSSFLGHLAAQVQAALRRGATQQASGDDTHTPLRMEPRLLEPTAQDSLHVSITRRDWLLQEKQQLQKEIEALQARMFVLEAKDQQLRREIEEQEQQLQWQGCDLTPLVGQLSLGQLQEVSKALQDTLASAGQIPFHAEPPETIRSLQERIKSLNLSLKEITTKVCMSEKFCSTLRKKVNDIETQLPALLEAKMHAISGNHFWTAKDLTEEIRSLTSEREGLEGLLSKLLVLSSRNVKKLGSVKEDYNRLRREVEHQETAYETSVKENTMKYMETLKNKLCSCKCPLLGKVWEADLEACRLLIQSLQLQEARGSLSVEDERQMDDLEGAAPPIPPRLHSEDKRKTPLKVLEEWKTHLIPSLHCAGGEQKEESYILSAELGEKCEDIGKKLLYLEDQLHTAIHSHDEDLIQSLRRELQMVKETLQAMILQLQPAKEAGEREAAASCMTAGVHEAQA |  | binds | binds |
| GST-DISC1 amino acids 358–499 (domain or fragment, UniProt Q9NRI5 358-499) QKLQEDAVENDDYDKAETLQQRLEDLEQEKISLHFQLPSRQPALSSFLGHLAAQVQAALRRGATQQASGDDTHTPLRMEPRLLEPTAQDSLHVSITRRDWLLQEKQQLQKEIEALQARMFVLEAKDQQLRREIEEQEQQLQW |  |  | binds |
